# Measured values as given in PubChem BioAssay AID602313 (National Center for Advancing Translational Sciences (NCATS), 2012).
# “And” between values parts separate entries of the source, which are not always exact repeats. Identical values can stand only once. The campaign covered roughly 390,000 compounds. About 760 (0.19%) were called active. This list was built around the results that the source calls inconclusive (neither active nor inactive); the mix of calls is not that of the screen. Calls follow the shape of the dose curve; as a rule, active = well fitted inhibition curve with a large enough effect; inconclusive = small, poorly fitted or top-dose-only effect; inactive = flat fitted curve, though single readings scatter. Potencies beside an inconclusive call are fits to weak or partial responses and may not hold up.
# Assay: qHTS for Inhibitors of Vif-A3F Interactions: qHTS; also: nearly all actives have a fitted effect of over 65% in size
# Conditions: HeLa A3F-eYFP + Vif (tagged APOBEC3F with the HIV-1 protein that degrades it), YFP fluorescence increase; series mostly up to 46.1 µM
# In short: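 HeLa cells stably expressing Vif plus C-terminally eYFP-tagged A3F were seeded, incubated overnight at 37 deg C, dosed with compound, incubated overnight again at 37 deg C. Yellow fluorescence (Ex 488/Em 500-530) reported blocked Vif-mediated A3F-eYFP degradation.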
# Potency is read from the fitted curve at half-maximal effect.
row,SMILES,Potency
1,Cc1cc(=O)[nH]c(SCC(=O)OCc2ccccc2)c1C#N,inactive
2,CN1CCN(C(c2ccc(Cl)cc2)c2cc(Cl)c3cccnc3c2O)CC1 (configuration not stated),"inconclusive: 20 µM [inhibitor, partial curve, poor fit]"
3,Oc1sc(C=Nc2ccc(F)cc2)c2ccccc12,active: 2.82 µM
4,CCOC(=O)c1nc(S(C)(=O)=O)ncc1N1CCOCC1,inactive
5,S=C(NCc1ccccc1)NCc1ccccc1,inactive
6,Nc1nonc1-c1nc2ccccc2n1CC(=O)Nc1cccc(C(F)(F)F)c1,active: 25.1 µM
7,CCOC(=O)c1sc2nc3n(c(=O)c2c1C)CCC3,"inconclusive: 6.31 µM [inhibitor, single point]"
8,COc1cccc(N/C(SCc2cccc([N+](=O)[O-])c2)=C(/C#N)C(N)=O)c1,"inconclusive: 3.16 µM [inhibitor, full curve, poor fit]"
9,CC(=O)Nc1ccc(S(=O)(=O)Nc2cccc(NC(=O)c3ccco3)c2)cc1,"inconclusive: 3.98 µM [inhibitor, single point]"
10,O=[N+]([O-])c1ccc(/C=C/C2=NN(c3ccccc3)C(c3ccco3)C2)o1 (configuration not stated),"inconclusive: 0.891 µM [inhibitor, full curve, poor fit]"
11,CCCN1CCN(CCCNC(=O)c2cc3c(s2)-c2c(C)cccc2OC3)CC1,"inconclusive: 22.4 µM [inhibitor, partial curve, poor fit] and inconclusive: 11.2 µM [inhibitor, partial curve]"
12,COc1ccc(/C=N/N=C(\N)c2nonc2N)cc1OC,"inconclusive: 35.5 µM [inhibitor, single point]"
13,O=C(O)c1ccc(NCc2cccs2)cc1,"inconclusive: 0.316 µM [inhibitor, full curve, poor fit]"
14,CCN(CC(=O)Nc1ccc(NC(C)=O)cc1)C(=O)CSc1ncnc2sc(C)c(C)c12,"inconclusive: 25.1 µM [inhibitor, single point]"
15,CCC(NC(=O)NNC(N)=S)(C(F)(F)F)C(F)(F)F,"inconclusive: 22.4 µM [inhibitor, single point]"
16,Cc1cccc(CCNC(=O)C2CCN(S(=O)(=O)c3ccccc3)CC2)c1,"inconclusive: 2.82 µM [inhibitor, single point]"
17,O=C(C1=C[C@H](c2ccc(C(F)(F)F)cc2)C[C@H](OCCCCO)O1)N1CCN(Cc2ccc3c(c2)OCO3)CC1,inactive
18,COc1ccc(S(=O)(=O)NC2CCCCC2)cc1C(=O)N1CCCCC1,"inconclusive: 22.4 µM [inhibitor, partial curve, poor fit]"
19,COc1cccc(/C(O)=C/c2nc3ccc(C(=O)NCCc4cccc(C)c4)cc3[nH]c2=O)c1,"inconclusive: 6.31 µM [inhibitor, full curve, poor fit]"
20,Cc1nc(SCC(=O)N2CCNC2=O)c2ccccc2n1,inactive
21,O=C(Cc1ccc(F)cc1)N/N=C/c1ccncc1,"inconclusive: 3.55 µM [inhibitor, partial curve, poor fit]"
22,CCn1ncc(Cl)c1C(=O)NC(=S)Nc1ccccc1Br,"inconclusive: 35.5 µM [inhibitor, single point]"
23,Cc1cccn2c(=O)c3cc(C#N)c(=NC(=O)c4cccs4)n(CCCOC(C)C)c3nc12,active: 25.1 µM

row,SMILES,Potency
1,CC(=O)c1cccc(N(C(=O)Cn2nnc3ccccc32)C(C(=O)NC2CCCCC2)c2cn(C)nc2C)c1 (configuration not stated),inactive
2,CN1CCC/C1=C/C=C1\SC(=S)NC1=O,"inconclusive: 2.51 µM [inhibitor, partial curve, poor fit]"
3,NC(N)=NS(=O)(=O)c1ccc(N/C=C/C(=O)c2ccc(Cl)c(Cl)c2)cc1,"inconclusive: 35.5 µM [inhibitor, single point]"
4,CCOC(=O)c1ccc(N2C(=O)c3n[nH]c(C)c3C2c2ccc(CC)cc2)cc1 (configuration not stated),inactive
5,COC(=O)c1cc2occc2n1Cc1nc(-c2ccc(Cl)cc2)oc1C,inactive
6,Cc1ccc(CNC(=O)c2ccc(N3CCC4(CC3)CC(c3ccccc3)=NO4)c(N)c2)cc1,"inconclusive: 22.4 µM [inhibitor, single point]"
7,CS(=O)(=O)Nc1nnc(CCc2ccccc2)s1,"inconclusive: 3.16 µM [inhibitor, partial curve, poor fit]"
8,CC1CCN(C(=O)C(C)OC(=O)CSc2ccc([N+](=O)[O-])cc2)CC1 (configuration not stated),inactive
9,Cc1cccc(C)c1-n1c(C)cc(/C=N\Nc2ccc([N+](=O)[O-])cn2)c1C,"inconclusive: 10 µM [inhibitor, partial curve, poor fit]"
10,O=C(Cn1ncc(Cl)c(Cl)c1=O)N1CCN(Cc2ccccc2)CC1,inactive
11,Cc1oc2c(cc(NS(=O)(=O)c3cccs3)c3ccccc32)c1C(=O)OC(C)C,inactive
12,COc1ccc(NC(=O)COc2ccc(C(=O)OCC(=O)N(C(C)C)C(C)C)cc2OC)cc1,"inconclusive: 3.16 µM [inhibitor, single point]"
13,O=C(O)CC1(CC(=O)Nc2ccc3c(c2)OCCCO3)CCCCC1,"inconclusive: 3.55 µM [inhibitor, partial curve, poor fit]"
14,NS(=O)(=O)c1ccc(CNc2nc(-c3cccnc3)nc3ccccc23)cc1,"inconclusive: 35.5 µM [inhibitor, single point]"
15,Clc1cccc(Cl)c1C1Nc2cccc3cccc(c23)N1,"inconclusive: 25.1 µM [inhibitor, single point]"
16,COc1ccc(-c2sc(C(=O)c3ccc(Cl)cc3Cl)cc2CC(=O)O)cc1,"inconclusive: 1.78 µM [inhibitor, single point]"
17,NNc1nnc2c3cc(F)ccc3n(Cc3ccccc3)c2n1,inactive
18,CCCN1CCc2c(sc(NC(=S)NC(=O)c3ccccc3)c2C#N)C1,active: 25.1 µM
19,CCc1c(C)sc(NC(=O)c2cc(-c3ccc(OC)c(OC)c3)on2)c1C#N,inactive
20,CCc1nn2c(N(C)CCO)cc(C)nc2c1-c1ccc(F)cc1,"inconclusive: 35.5 µM [inhibitor, single point]"
21,CC1(C(=O)OCC(=O)Nc2ccc3ccccc3c2)CC1(Cl)Cl (configuration not stated),inactive
22,COc1ccc(-n2c(SCC(=O)N3CCCCC3)nc3ccccc3c2=O)cc1,"inconclusive: 35.5 µM [inhibitor, partial curve, poor fit]"
23,O=C(N/N=C\c1ccc(OC(=O)c2ccco2)cc1)c1ccc(Cl)cc1,"inconclusive: 2.82 µM [inhibitor, partial curve, poor fit]"

row,SMILES,Potency
1,COc1ccc2oc(=O)c(C(=O)NCc3ccco3)cc2c1,"inconclusive: 35.5 µM [inhibitor, single point]"
2,COc1ccc(C(=O)NC(=S)Nc2ccc(Cl)cn2)cc1OC,"inconclusive: 11.2 µM [inhibitor, single point]"
3,COCC1CCN(Cc2nc(COc3ccccc3)no2)C1 (configuration not stated),"inconclusive: 2.82 µM [inhibitor, partial curve, poor fit]"
4,Cc1nn(CC(O)CN2c3ccccc3Sc3ccccc32)c(C)c1Br (configuration not stated),"inconclusive: 15.8 µM [inhibitor, single point]"
5,NC(=O)CC(NC(=O)Cc1cccc2ccccc12)c1ccc(NCCc2ccccc2F)c([N+](=O)[O-])c1 (configuration not stated),"inconclusive: 17.8 µM [inhibitor, partial curve, poor fit]"
6,N#Cc1c(Nc2cccc(F)c2)sc2c(O)cc(=O)[nH]c12,"inconclusive: 22.4 µM [inhibitor, single point]"
7,COc1ccc(NC(=O)CN2C(=O)C(=O)c3ccccc32)c(OC)c1,"inconclusive: 25.1 µM [inhibitor, single point]"
8,COc1ccc(Cn2cccc(NC(=O)Nc3cccc(C#N)c3)c2=O)cc1,"inconclusive: 3.16 µM [inhibitor, single point]"
9,COc1ccc(-n2c3c(cc(C(=O)NCC(=O)c4ccccc4)c2=O)C(=O)CC(C)(C)C3)cc1,"inconclusive: 6.31 µM [inhibitor, single point]"
10,Cc1ccc(CCNC(=O)CCCn2c(=O)c3cccn3c3ccc(F)cc32)cc1,inactive
11,Clc1ccccc1/C=N/NC1=Nc2cccc3cccc1c23,active: 5.62 µM
12,CCOC(=O)c1sc(NC(=O)c2cc(-c3ccc(C)cc3)nc3ccccc23)c(C#N)c1C,inactive
13,CC(C)CCN1CC(=O)N2Cc3[nH]c4ccccc4c3C[C@H]2C1=O,"inconclusive: 6.31 µM [inhibitor, single point]"
14,NCc1cc2c3c(c1)CCCN3CCC2,"inconclusive: 0.562 µM [inhibitor, full curve, poor fit]"
15,CCc1ccccc1NC(=O)Cn1nnc(C(=O)NCc2cccc(OC)c2)c1N,"inconclusive: 2.24 µM [inhibitor, full curve, poor fit]"
16,N#C/C(=C(/O)COC(=O)COc1cccc(Br)c1)c1nc2ccccc2[nH]1,"inconclusive: 25.1 µM [inhibitor, single point]"
17,Cn1c2ccccc2c(=O)c2c(=O)n(-c3ccccc3)c(C3CCCCC3)nc21,inactive
18,CCOC(=O)C1=C(C)NC(C)=C(C(=O)OCC)C1c1ccc(O)cc1,inactive
19,O=[N+]([O-])c1ccc(Oc2cccc3cccnc23)c(Cl)c1,"inconclusive: 15.8 µM [inhibitor, single point]"
20,O=C(/C=C/c1ccccc1)CC(=O)c1ccccc1,"inconclusive: 35.5 µM [inhibitor, single point]"
21,N/C(Cc1ccc([N+](=O)[O-])cc1)=N\OC(=O)c1cccc(Br)c1,"inconclusive: 2.82 µM [inhibitor, partial curve, poor fit]"
